Patent publication US20250296958A1, “GL[…] E[…]” (THE ADMINISTRATORS OF THE TULANE EDUCATIONAL FUND, priority 2022, published 2025)

System: male and female CD-1 mice
Test: Tail flick (TF) antinociception test
Assay type: in vivo
Description: Tail Flick (TF): CD1 mice were used for this test. The latency to withdraw the tail from a heat source was automatically measured (IITC, Woodland Hills, CA). […] Percent Maximum Possible Effect (% MPE) was determined as [(latency-baseline latency)/(9-baseline latency)]*100.
Statistics/Data Analysis: Data were analyzed with […] PRISM software (GraphPad Software, San Diego CA).

In the case of `CN1CC[C@]23c4c5ccc(O)c4O[C@H]2[C@@H](O)C=C[C@H]3[C@H]1C5` [morphine, reference compound], the “rank order of effectiveness, TF AUC” value (main effects of drug) is reported as “A2>A7>A1>morphine>ZH853” and the “TF antinociception AUC” value (top dose (5.6 mg/kg), mean male and female) is reported as 10000.
